Reference: patent US9981918B2, “Kynurenine-3-monooxygenase inhibitors, pharmaceutical compositions, and methods of use thereof” (CHDI Foundation, Inc., priority 2011, dated 2018)
For at least one compound, name, drawing or mass did not settle the structure.

System: KMO
Experiment: KMO inhibition: L-Kynurenine hydroxylation to 3-Hydroxy-Kynurenine monitored by LC/MS
Type: biochemical
Details: compound at 10 uM; footnote: some portion of activity of amides may be due to contribution of acid precursor
Method: A generalized procedure for monitoring L-Kynurenine (KYN) hydroxylation to form product 3-Hydroxy-Kynurenine (30H-KYN) by LC/MS is described below. Product is quantified by multiple reaction monitoring using MS.
A method of monitoring L-Kynurenine (KYN) hydroxylation to form product 3-Hydroxy-Kynurenine (30H-KYN) by LC/MS is described below. Product is quantified by multiple reaction monitoring.
• Compound: Stock concentrations: 10 mM in 100% DMSO • Enzyme: KMO enzyme prepared at Evotec via mitochondria isolation from CHO-GST HIS KMO cells • Substrate: L-Kynurenine (Sigma: Cat# K3750) • [stock concentration: 10 mM in 100 mM potassium phosphate buffer, pH 7.4]
A method of monitoring L-Kynurenine (KYN) hydroxylation to form 3-Hydroxy-Kynurenine (30H-KYN) by LC/MS is described. Product is quantified by multiple reaction monitoring (MRM method).

Compound	% Inhibition at 10 uM* [%]
O=C(O)c1cc(-c2ccc(OC(F)(F)F)c(Cl)c2)ccn1 [4-(3-Chloro-4-trifluoromethoxy-phenyl)-pyridine-2-carboxylic acid]	89
O=S(=O)(Nc1cc(-c2ccc(OC3CC3)c(Cl)c2)ncn1)c1cccc(OC(F)(F)F)c1 [N-[6-(3-chloro-4-cyclopropoxyphenyl)pyrimidin-4-yl]-3-(trifluoromethoxy)benzene-1-sulfonamide]	77
